The data set in a line: general procedure: Fmoc solid-phase peptide synthesis; acid-labile chlorotrityl resin prederivatized with Fmoc-glycine (Novabiochem Cat No. 04-12-2800); HOBt/DCC. Conditions: whole synthesis, scale of the general procedure 0.1 mmole; for crude HPLC purity: RP-HPLC.

For the substance (H-L-Tyr-L-Thr-L-Arg-)4-Lys2-Lys-Gly-OH, the “crude HPLC purity” value came to 96% and the crude yield is given as 79%.
The matching figures for (H-D-Tyr-D-Thr-D-Arg-)4-Lys2-Lys-Gly-OH: 97% and 81%.
Regarding (H-D-Arg-D-Thr-D-Tyr-)4-Lys2-Lys-GlyOH, the “crude HPLC purity” value stood at 97% and the crude yield amounted to 75%.
